The nature of data set [1]: Recovery of cholecalciferol and cholecalciferol phosphate disodium from spiked porcine skin layers. As to conditions: in PG, mean ± SD, n = 3.
Data set [2] can be described thus: Recovery of iron from spiked porcine skin layers. Conditions: in PG, mean ± SD, n = 3.

Regarding `C=C1CC[C@H](O)C/C1=C/C=C1\CCC[C@]2(C)[C@@H]([C@H](C)CCCC(C)C)CC[C@@H]12` [Cholecalciferol, reference compound], the Recovery in skin was 102 ± 4% in data set [1] (Dermis), 92 ± 2% in data set [1] (Epidermis) and 114 ± 5% in data set [1] (Stratum corneum).
For `O.O.O.O.O.O.[Cl-].[Cl-].[Cl-].[Fe+3]` [Iron chloride hexahydrate, reference compound], the Recovery in skin in data set [2] (Dermis) is 59 ± 17%; in data set [2] (Epidermis), 51 ± 6%; in data set [2] (Stratum corneum) it was 155 ± 7%.
In the case of `CCc1occc(=O)c1[O-].CCc1occc(=O)c1[O-].CCc1occc(=O)c1[O-].[Fe+3]` [Iron ethyl maltol, iron ethyl maltol], the Recovery in skin amounted to 96 ± 8% in data set [2] (Dermis), 78 ± 10% in data set [2] (Epidermis) and 104 ± 25% in data set [2] (Stratum corneum).
Turning to cholecalciferol phosphate disodium, the results for the Recovery in skin in data set [1] (Dermis), in data set [1] (Epidermis) and in data set [1] (Stratum corneum) were 87 ± 14%, 14 ± 4% and 79 ± 7%, respectively.

(Values after US20260306421A1, “SYSTEMS AND METHODS FOR TRANSDERMAN PATCH DELIVERY” (VITAMAX PATCH WHOLESALER LLC, priority 2022, published 2026).)
